# Experimental data: PubChem BioAssay AID1259308 (NCATS, 2017)
# Purpose: 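Knock-downs that increase output of a recombinant reporter protein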 (primary screen)
# Cell system: human HEK293 embryonic kidney cells stably expressing firefly luciferase (HEK-CMV-Luc2-Hygro)
# Reagents: single siRNA against human genes, 0.8 pmol siRNA per well
# Time to read-out: 72 h
# Measurement: 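Reporter luminescence and viable-cell signal on separate replicate plates, given as percent of non-targeting control and median/MAD z-scores, plus per-cell luciferase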
# Direction: total luciferase, z-score and total luciferase, % of control: higher = more reporter protein produced; luciferase per cell, z-score: higher = more reporter output per viable cell; viable cells, % of control: higher = more viable cells
# Call rule: 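Active when the median/MAD z-score for overall luciferase is greater than 3; a gene was taken forward for validation with new siRNAs if at least two of its three siRNAs passed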
# Calls: active = raised luciferase; inactive = no rise
# The deposit covers about 59,000 reagents; shown is a part drawn at random. About 1,510 of them (2.6%) count as active. 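Calls use total luciferase alone and ignore viability, so some active siRNAs may act by altering cell number.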 A number with no mark means an inactive call. The numbers tell different reagents against one gene apart.
gene knocked down,siRNA no.,"total luciferase, z-score","total luciferase, % of control","luciferase per cell, z-score","viable cells, % of control"
CCDC33,1,-1.36,54.8,-1.46,89.9
CCDC33,2,-1.89,44.3,-1.43,72.2
CCDC33,3,-1.9,44.1,-0.994,64
MAGEA6,1,-0.392,74.1,-1.27,116
MAGEA6,2,2.62,134,2.12,85.6
MAGEA6,3,-0.358,74.8,-0.281,90
SLC25A19,1,-0.00269,81.8,-0.479,104
SLC25A19,2,-0.141,79.1,-0.0297,89.1
SLC25A19,3,2.55,133,3.21,63.6
NOP56,1,-1.68,48.5,-1.38,77.9
NOP56,2,-0.867,64.6,-0.624,85.1
NOP56,3,-1.1,59.9,-0.371,73.8
GSPT2,1,0.299,87.8,-0.201,103
GSPT2,2,0.151,84.9,0.466,83.9
GSPT2,3,0.95,101,1.14,83.5
PERM1,1,0.112,84.1,0.324,86.3
PERM1,2,0.527,92.4,0.559,89.1
PERM1,3,0.442,90.7,1.03,77.2
RLN1,1,0.251,86.9,-0.312,105
RLN1,2,-0.103,79.8,-0.132,92.4
RLN1,3,0.302,87.9,0.149,94.4
SLC4A4,1,0.819,98.2,0.999,84.3
SLC4A4,2,0.59,93.6,-0.321,114
SLC4A4,3,1.58,113,0.965,98.3
ASL,1,1.63,114,1.59,84
ASL,2,0.613,94.1,0.602,89.7
ASL,3,-0.19,78.1,0.0766,85.5
ASIC2,1,-0.249,76.9,0.103,83.7
ASIC2,2,-0.555,70.9,-0.752,96.5
ASIC2,3,0.557,93,0.236,97.6
STX17-DT,1,0.821,98.2,0.069,108
STX17-DT,2,0.324,88.3,0.858,78.7
STX17-DT,3,-0.742,67.1,-0.415,83.7
EXOG,1,0.477,91.4,0.0652,100
EXOG,2,-0.787,66.2,1.11,55.3
EXOG,3,-0.188,78.1,-1.01,114
OVOL1,1,0.286,87.6,0.364,88.9
OVOL1,2,0.0878,83.6,-0.234,99.4
OVOL1,3,-0.879,64.4,-0.556,83.3
PUS10,1,1.1,104,0.282,108
PUS10,2,-0.393,74.1,-0.498,94.4
PUS10,3,0.974,101,0.652,95.3
SH3RF2,1,0.211,86.1,-0.453,108
SH3RF2,2,1.4,110,0.717,102
SH3RF2,3,-1.13,59.3,-1.16,90
PDE5A,1,-0.63,69.4,-0.57,90.1
PDE5A,2,-0.132,79.3,-0.423,99
PDE5A,3,1.42,110,0.83,99
CAPN13,1,-0.44,73.1,-0.382,90.4
CAPN13,2,0.491,91.6,0.0236,102
CAPN13,3,0.0387,82.7,-0.403,103
GCC1,1,0.887,99.5,0.251,104
GCC1,2,0.48,91.4,-0.1,105
GCC1,3,-0.833,65.3,1.06,55.2
IL38,1,0.285,87.6,-0.395,109
IL38,2,0.323,88.3,1.18,72.4
IL38,3,-0.574,70.5,-0.919,100

Copied from the list.
Under “total luciferase, % of control”, RLN1 #1 shows 86.9
Entry for ASL #1 in “total luciferase, z-score”: 1.63
Result of NOP56 #2 in “luciferase per cell, z-score”: -0.624
Value for STX17-DT #3 under “viable cells, % of control”: 83.7
PDE5A #3, total luciferase, z-score → 1.42
Under “viable cells, % of control”, NOP56 #1 has 77.9
